{"source": "paper PMC10896376", "molecular_target": "T1, human Fructosamine-3-kinase (HsFN3K) (human (endogenous in HepG2)) (UniProt Q9H479)", "T1 sequence": "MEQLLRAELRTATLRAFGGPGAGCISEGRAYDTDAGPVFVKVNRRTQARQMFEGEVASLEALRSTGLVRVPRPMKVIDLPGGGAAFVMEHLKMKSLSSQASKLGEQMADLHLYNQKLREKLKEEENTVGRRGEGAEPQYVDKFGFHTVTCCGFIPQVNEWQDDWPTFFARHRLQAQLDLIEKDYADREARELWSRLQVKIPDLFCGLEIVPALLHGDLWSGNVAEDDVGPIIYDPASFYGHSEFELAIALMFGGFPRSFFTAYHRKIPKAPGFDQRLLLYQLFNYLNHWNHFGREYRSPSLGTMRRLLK", "test": "co-IP; subcellular fractions of HepG2 cells (cytoplasm, nucleus, mitochondria) in RIPA buffer, 400 ug protein, IP with anti-FN3K antibody and protein A/G plus agarose beads, 16 h at 4°C; immunoblot", "note": "No constants are given. Whether binding was seen depends on the method and setting. In cells and extracts the contact can be indirect. Some results given as binding are weak or reduced against the parent protein; the word gives no strength."}
{"binder": "Pyruvate dehydrogenase B (PDHB) (enzyme, UniProt P11177 31-359) LQVTVRDAINQGMDEELERDEKVFLLGEEVAQYDGAYKVSRGLWKKYGDKRIIDTPISEMGFAGIAVGAAMAGLRPICEFMTFNFSMQAIDQVINSAAKTYYMSGGLQPVPIVFRGPNGASAGVAAQHSQCFAAWYGHCPGLKVVSPWNSEDAKGLIKSAIRDNNPVVVLENELMYGVPFEFPPEAQSKDFLIPIGKAKIERQGTHITVVSHSRPVGHCLEAAAVLSKEGVECEVINMRTIRPMDMETIEASVMKTNHLVTVEGGWPQFGVGAEICARIMEGPAFNFLDAPAVRVTGADVPMPYAKILEDNSIPQVKDIIFAIKKTLNI", "values": [{"measurement": "binding", "result": "binds"}]}
